# Results as given in article PMC5853841.
# Molecular target: T1, AtSnRK1.1 (Arabidopsis) (UniProt Q38997)
# T1 sequence: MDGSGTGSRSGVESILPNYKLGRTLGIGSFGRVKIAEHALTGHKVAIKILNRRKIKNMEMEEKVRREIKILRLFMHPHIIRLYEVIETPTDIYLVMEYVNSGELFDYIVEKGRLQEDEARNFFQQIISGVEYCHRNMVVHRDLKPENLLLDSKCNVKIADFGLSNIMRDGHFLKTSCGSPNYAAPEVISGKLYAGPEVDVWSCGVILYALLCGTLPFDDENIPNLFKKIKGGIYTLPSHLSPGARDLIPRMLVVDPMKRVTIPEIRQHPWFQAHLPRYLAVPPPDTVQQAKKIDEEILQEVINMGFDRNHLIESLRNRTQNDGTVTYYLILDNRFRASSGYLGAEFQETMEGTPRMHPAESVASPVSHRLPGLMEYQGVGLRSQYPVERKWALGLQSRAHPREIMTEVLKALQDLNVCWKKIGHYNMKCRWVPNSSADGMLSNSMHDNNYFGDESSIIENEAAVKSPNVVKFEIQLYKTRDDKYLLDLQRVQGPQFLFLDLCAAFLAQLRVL
# Assay: two-hybrid; pairwise; baits in pGBT9, preys in pGAD424; -T/-L as transformation control, -T/-L/-H/-A as screen
substance,measurement,value
AtJAZ3 (Arabidopsis),binding,binds

# These are yes or no findings as the source states them, for the method shown. Binding calls can cover weak binding; strength is not graded here.
